# Source: the supplement of paper PMC6411743
# The chains behind the UniProt entries cited, without tags or fusion partners. Where a name states a change or a piece, a line headed by the entry shows the natural chain unless it says otherwise.
# UniProt Q02880: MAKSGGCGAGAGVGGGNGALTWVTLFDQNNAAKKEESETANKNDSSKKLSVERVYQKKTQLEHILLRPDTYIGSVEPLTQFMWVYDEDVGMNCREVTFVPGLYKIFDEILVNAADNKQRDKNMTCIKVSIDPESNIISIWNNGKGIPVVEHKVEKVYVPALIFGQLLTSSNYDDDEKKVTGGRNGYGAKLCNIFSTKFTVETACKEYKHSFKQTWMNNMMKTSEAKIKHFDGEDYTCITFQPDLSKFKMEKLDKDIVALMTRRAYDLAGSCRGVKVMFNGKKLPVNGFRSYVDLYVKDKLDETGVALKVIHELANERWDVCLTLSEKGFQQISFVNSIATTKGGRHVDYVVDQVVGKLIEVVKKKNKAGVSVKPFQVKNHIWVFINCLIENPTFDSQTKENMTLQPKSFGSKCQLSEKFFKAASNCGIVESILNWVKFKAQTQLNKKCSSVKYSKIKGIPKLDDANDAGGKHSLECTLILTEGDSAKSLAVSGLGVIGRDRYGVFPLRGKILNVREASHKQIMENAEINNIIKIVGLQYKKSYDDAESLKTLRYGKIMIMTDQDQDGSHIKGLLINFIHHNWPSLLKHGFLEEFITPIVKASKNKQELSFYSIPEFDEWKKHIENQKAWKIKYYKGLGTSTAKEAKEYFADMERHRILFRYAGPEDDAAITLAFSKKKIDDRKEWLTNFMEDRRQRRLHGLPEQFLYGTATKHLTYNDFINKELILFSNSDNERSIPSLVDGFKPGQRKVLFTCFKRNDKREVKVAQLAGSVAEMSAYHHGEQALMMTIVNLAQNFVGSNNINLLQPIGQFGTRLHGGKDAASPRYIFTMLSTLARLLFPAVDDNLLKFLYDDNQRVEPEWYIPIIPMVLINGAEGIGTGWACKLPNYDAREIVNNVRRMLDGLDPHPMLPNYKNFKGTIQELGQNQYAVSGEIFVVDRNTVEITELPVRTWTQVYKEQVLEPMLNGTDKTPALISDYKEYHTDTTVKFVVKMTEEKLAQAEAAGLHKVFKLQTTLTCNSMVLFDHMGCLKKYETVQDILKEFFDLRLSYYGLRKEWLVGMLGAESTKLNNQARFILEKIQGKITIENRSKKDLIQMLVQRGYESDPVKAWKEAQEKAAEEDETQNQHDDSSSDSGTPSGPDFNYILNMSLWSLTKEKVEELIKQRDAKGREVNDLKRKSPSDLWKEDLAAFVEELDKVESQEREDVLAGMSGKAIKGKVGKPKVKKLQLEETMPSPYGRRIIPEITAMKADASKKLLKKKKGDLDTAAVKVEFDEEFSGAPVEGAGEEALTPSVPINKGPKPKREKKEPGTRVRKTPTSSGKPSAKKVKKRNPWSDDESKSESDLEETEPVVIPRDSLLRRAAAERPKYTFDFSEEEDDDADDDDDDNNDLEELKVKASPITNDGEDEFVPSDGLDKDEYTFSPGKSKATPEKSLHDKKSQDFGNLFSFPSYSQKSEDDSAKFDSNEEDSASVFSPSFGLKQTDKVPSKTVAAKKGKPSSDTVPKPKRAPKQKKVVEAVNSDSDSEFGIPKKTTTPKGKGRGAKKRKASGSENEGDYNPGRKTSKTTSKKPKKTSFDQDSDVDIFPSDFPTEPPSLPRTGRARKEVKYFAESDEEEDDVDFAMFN
# UniProt P55769: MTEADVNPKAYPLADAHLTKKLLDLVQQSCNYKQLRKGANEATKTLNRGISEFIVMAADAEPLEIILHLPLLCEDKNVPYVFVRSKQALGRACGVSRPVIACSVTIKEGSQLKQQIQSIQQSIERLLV
# UniProt P55957: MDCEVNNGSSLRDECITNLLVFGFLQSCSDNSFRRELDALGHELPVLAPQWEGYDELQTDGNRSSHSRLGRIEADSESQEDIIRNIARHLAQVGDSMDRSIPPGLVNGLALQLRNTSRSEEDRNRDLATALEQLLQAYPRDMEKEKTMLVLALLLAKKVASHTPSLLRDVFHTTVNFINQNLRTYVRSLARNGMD
# UniProt P56385: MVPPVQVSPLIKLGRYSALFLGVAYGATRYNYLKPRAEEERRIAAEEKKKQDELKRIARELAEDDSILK
# UniProt P61289: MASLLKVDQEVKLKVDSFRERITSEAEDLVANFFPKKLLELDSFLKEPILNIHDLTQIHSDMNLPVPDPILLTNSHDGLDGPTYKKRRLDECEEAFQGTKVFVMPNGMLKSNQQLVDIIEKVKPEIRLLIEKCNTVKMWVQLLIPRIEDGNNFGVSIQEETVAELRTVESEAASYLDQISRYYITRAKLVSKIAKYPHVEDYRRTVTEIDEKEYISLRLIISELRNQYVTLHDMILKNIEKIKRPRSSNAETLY
# UniProt P61009: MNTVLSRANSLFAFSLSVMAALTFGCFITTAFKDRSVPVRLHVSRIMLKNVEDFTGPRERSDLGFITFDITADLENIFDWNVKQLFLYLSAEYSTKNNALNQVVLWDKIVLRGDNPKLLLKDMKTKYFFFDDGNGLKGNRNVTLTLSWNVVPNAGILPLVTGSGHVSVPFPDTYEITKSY
# UniProt P85037: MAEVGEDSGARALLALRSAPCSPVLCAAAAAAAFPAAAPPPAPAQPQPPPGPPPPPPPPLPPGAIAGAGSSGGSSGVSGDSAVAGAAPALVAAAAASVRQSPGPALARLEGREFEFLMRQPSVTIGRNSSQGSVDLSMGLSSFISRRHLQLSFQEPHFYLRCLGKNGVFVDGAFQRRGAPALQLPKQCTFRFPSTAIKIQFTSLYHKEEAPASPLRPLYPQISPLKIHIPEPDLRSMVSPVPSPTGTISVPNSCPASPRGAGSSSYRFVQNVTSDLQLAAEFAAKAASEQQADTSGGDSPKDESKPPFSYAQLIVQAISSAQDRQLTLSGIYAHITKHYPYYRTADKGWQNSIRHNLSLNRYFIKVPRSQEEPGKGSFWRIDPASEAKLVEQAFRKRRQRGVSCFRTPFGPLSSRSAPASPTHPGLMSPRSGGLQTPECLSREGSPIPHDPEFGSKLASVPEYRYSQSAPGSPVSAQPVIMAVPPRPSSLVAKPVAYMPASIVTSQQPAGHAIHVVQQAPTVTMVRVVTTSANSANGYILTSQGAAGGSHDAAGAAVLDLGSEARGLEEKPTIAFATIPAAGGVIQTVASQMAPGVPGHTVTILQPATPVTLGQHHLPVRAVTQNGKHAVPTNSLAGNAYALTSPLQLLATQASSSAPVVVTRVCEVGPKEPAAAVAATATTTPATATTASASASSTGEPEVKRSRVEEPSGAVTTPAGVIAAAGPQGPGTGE
# UniProt Q03933: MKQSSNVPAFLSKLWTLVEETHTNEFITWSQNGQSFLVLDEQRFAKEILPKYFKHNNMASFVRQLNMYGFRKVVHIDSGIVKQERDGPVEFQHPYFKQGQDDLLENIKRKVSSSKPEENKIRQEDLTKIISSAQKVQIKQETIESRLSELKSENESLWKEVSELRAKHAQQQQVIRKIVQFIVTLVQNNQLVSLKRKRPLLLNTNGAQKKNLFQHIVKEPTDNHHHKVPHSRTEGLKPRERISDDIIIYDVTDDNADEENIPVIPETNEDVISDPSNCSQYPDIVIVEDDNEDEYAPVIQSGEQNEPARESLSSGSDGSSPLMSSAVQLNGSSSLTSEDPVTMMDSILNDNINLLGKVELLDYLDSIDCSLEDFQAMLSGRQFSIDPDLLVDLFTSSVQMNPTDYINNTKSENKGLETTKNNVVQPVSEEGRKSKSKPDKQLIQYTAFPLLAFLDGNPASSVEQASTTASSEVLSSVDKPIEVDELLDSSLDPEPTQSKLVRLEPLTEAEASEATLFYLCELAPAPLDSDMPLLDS
# UniProt Q04656: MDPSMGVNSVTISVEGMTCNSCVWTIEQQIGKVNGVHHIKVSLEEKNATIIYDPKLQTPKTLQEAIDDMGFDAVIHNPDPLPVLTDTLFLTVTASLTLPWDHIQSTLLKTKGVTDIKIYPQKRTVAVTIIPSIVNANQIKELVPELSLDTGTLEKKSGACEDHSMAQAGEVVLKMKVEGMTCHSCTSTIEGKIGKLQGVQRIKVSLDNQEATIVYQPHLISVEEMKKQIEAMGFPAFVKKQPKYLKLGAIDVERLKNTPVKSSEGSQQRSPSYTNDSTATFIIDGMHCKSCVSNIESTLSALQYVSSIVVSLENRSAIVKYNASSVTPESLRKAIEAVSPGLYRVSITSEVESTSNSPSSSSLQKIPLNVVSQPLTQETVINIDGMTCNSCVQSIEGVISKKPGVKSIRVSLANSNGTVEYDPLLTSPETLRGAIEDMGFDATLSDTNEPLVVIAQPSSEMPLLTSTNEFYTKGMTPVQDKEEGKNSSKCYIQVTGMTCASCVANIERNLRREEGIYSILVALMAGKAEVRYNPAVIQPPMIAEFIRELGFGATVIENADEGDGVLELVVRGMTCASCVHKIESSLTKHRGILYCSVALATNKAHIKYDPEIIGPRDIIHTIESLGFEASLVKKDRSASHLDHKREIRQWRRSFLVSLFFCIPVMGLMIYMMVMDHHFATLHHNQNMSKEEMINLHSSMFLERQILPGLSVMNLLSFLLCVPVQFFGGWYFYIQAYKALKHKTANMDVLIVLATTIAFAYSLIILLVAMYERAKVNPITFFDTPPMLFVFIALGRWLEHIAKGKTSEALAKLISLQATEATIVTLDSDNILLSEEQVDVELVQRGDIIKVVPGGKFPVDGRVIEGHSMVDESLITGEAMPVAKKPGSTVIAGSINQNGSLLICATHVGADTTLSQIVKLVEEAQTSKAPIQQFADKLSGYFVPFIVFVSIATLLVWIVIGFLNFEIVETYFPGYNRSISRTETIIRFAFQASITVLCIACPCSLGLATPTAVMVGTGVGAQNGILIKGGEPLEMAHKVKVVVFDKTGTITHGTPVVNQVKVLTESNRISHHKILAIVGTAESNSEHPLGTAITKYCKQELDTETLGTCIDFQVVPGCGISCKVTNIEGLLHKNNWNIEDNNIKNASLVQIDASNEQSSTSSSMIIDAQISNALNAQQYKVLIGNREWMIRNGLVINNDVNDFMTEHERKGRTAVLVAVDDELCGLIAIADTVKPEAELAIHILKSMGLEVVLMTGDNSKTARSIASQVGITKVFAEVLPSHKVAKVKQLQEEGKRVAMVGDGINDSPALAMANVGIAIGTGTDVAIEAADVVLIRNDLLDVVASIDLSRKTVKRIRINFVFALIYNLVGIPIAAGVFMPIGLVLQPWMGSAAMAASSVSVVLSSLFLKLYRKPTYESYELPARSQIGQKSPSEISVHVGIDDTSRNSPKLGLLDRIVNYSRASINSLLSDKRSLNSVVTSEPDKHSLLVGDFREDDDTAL
# UniProt P98082: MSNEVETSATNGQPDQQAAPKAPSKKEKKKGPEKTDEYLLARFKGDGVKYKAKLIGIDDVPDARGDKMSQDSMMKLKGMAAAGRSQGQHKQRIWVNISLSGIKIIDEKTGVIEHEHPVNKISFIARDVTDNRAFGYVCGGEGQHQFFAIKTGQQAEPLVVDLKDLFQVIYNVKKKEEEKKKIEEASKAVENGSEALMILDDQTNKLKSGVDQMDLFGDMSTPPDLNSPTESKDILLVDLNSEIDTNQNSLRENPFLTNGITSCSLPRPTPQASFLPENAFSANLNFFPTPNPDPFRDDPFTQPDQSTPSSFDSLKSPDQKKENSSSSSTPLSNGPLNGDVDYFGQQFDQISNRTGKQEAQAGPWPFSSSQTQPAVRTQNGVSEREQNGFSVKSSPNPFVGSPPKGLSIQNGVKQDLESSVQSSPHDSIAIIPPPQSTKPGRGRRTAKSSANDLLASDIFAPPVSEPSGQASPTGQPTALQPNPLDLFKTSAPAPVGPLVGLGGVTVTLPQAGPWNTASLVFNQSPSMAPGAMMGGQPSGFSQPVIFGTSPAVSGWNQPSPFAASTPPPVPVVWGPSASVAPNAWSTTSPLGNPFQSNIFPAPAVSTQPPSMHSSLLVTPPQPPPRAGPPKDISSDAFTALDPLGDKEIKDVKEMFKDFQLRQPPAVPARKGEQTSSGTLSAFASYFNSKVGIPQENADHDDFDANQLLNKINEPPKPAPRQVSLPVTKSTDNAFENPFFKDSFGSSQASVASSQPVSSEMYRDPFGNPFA
# UniProt P62714, whole entry: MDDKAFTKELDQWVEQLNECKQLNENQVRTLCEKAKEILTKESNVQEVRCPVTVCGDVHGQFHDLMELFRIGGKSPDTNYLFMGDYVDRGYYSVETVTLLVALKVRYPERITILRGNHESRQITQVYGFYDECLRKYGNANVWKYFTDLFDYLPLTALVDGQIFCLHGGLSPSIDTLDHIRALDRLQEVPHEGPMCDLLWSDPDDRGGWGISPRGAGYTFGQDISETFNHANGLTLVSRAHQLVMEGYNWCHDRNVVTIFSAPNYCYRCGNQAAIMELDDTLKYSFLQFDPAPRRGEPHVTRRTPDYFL
# ± gives the standard deviation of the averaged measurements. The list shows a part of the results, in another mix than the full data.
# Compound: Nc1ncnc2c1ncn2[C@@H]1O[C@H](COP(=O)(O)OP(=O)(O)NP(=O)(O)O)[C@@H](O)[C@H]1O [adenylyl imidodiphosphate]
# Assay: NP40-soluble protein abundance relative to vehicle (solubility fold change) (ratio); higher = more soluble protein in presence of AMP-PNP
# Method in brief: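 Data come from three independent experiments in which Dounce-homogenised Jurkat crude lysate was treated at eight concentrations from 0.1 to 10 mM. Treatment ran 10 min at room temperature and then 3 min at 37 °C, after which 0.8% NP40 and benzonase were added for 60 min at 4 °C before ultracentrifugation. The supernatant underwent TMT labelling and LC-MS/MS, and vsn-normalised intensities were expressed as fold change against the detergent-processed vehicle in each replicate.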
Target,NP40-soluble protein abundance (concentration: 1mM),NP40-soluble protein abundance (concentration: 2mM),NP40-soluble protein abundance (concentration: 4mM),NP40-soluble protein abundance (concentration: 6mM),NP40-soluble protein abundance (concentration: 8mM),NP40-soluble protein abundance (concentration: 10mM)
UniProt Q02880 and related entries,1.56 ± 0.036,1.63 ± 0.041,1.77 ± 0.12,1.88 ± 0.19,1.95 ± 0.18,2.01 ± 0.25
RPL38 (UniProt P63173),0.984 ± 0.013,0.9661 ± 0.0021,0.95 ± 0.039,0.919 ± 0.028,0.8314 ± 0.0071,1.003 ± 0.0099
UniProt P55769,1.07 ± 0.022,1.12 ± 0.045,1.12 ± 0.065,1.17 ± 0.014,1.29 ± 0.043,1.3 ± 0.022
UniProt P55957 and related entries,1.01 ± 0.029,1.11 ± 0.054,0.998 ± 0.061,0.925 ± 0.026,0.936 ± 0.026,0.907 ± 0.062
UniProt P56385,0.875 ± 0.046,1.02 ± 0.052,0.803 ± 0.071,0.865 ± 0.059,0.743 ± 0.03,0.835 ± 0.057
UniProt P61289 and related entries,0.983 ± 0.064,0.955 ± 0.12,0.808 ± 0.23,0.886 ± 0.17,0.999 ± 0.037,0.968 ± 0.1
UniProt P61009,1.06 ± 0.058,1.06 ± 0.14,1.06 ± 0.086,1.19 ± 0.17,1.22 ± 0.062,1.25 ± 0.13
UniProt P62913 and related entries,0.991 ± 0.085,0.968 ± 0.056,0.916 ± 0.068,0.909 ± 0.084,0.845 ± 0.035,0.96 ± 0.15
FOXK1 (UniProt P85037),0.999 ± 0.044,1.06 ± 0.086,1.01 ± 0.014,0.987 ± 0.015,0.9378 ± 0.0057,1.01 ± 0.02
UniProt Q03933 and related entries,1.01 ± 0.03,1.01 ± 0.072,1.01 ± 0.049,0.99 ± 0.017,0.974 ± 0.059,0.981 ± 0.036
UniProt Q04656 and related entries,1.02 ± 0.052,1.01 ± 0.032,1.01 ± 0.06,0.975 ± 0.05,0.982 ± 0.061,0.983 ± 0.025
UniProt P98082 and related entries,1.016 ± 0.0042,1.03 ± 0.042,1.042 ± 0.0097,1.016 ± 0.004,1.017 ± 0.0048,1.035 ± 0.0064
UniProt P98155 and related entries,1.23 ± 0.11,1.059 ± 0.0093,1.05 ± 0.0055,1.02 ± 0.034,0.977 ± 0.014,1 ± 0.025
UniProt P62714,1.03 ± 0.015,0.997 ± 0.023,0.975 ± 0.018,0.943 ± 0.035,0.96 ± 0.043,0.967 ± 0.049
UniProt P62244,0.919 ± 0.062,0.84 ± 0.11,0.857 ± 0.1,0.883 ± 0.068,0.835 ± 0.076,0.855 ± 0.094
